Data published in paper PMC12092789.
Results are given in words; binding and its absence hold for the method and conditions named. Binding seen in cells or lysates may run through a third protein. Some results given as binding are weak or reduced against the parent protein; the word gives no strength. For some assays here: Tags and fused reporters may be left off the sequences shown. Blank lines part the entries; values can stand above or below the molecule they belong to.

Chains of the proteins cited; added tags and fusions are not shown. Lines headed by an entry give the natural chain unless they say otherwise; changes in a name come on top.
UniProt P06748: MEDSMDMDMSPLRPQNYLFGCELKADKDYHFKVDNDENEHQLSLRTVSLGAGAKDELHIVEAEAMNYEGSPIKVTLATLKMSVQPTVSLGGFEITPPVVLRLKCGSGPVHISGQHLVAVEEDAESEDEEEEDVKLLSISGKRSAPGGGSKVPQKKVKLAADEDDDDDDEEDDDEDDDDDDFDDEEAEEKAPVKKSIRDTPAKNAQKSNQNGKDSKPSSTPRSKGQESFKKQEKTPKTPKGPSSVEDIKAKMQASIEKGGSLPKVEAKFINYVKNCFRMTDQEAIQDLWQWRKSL
UniProt Q06609: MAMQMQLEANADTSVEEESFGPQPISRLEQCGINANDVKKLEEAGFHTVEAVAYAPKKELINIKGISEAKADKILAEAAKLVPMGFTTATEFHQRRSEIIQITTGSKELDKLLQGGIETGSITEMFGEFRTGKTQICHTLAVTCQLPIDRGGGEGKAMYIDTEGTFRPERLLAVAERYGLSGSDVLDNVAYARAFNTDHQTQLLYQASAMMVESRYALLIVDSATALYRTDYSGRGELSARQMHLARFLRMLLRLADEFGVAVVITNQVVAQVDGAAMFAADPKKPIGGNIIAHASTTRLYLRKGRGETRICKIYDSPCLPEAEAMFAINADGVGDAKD

What was measured:
GST-PKMYT1 [1] = target: T1, GST-PKMYT1 (UniProt Q99640); test: pull-down; GST-NPM1 or GST-PKMYT1 on glutathione-sepharose beads incubated with cell lysates (RIPA buffer) at 4 °C for 24 h; Western blot; only the target purified
T1 sequence: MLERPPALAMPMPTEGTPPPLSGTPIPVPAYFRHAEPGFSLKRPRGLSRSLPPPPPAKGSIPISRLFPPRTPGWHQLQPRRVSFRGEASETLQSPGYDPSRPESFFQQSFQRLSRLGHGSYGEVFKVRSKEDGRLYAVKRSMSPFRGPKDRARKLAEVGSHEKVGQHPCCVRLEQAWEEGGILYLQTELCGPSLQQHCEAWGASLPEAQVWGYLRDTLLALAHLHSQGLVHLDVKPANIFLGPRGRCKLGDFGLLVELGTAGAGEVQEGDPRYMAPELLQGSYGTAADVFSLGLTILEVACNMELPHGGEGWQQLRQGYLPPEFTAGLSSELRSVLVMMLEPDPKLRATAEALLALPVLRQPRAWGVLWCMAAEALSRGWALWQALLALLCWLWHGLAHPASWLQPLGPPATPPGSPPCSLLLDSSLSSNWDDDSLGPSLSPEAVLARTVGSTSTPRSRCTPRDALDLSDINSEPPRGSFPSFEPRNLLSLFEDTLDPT

[2] = target: nucleophosmin 1 (NPM1) (human (endogenous in HEK293T and the paper's other human cell lines)) (UniProt P06748); test: co-IP; HEK293T lysates; cells with siPKMYT1 (48 h), RP6306 (2 μM, 24 h) and/or cisplatin (1 μM, 24 h) before harvest; Western blot
[3] = target: wild-type NPM1 (expressed from a plasmid) (UniProt P06748); test: co-IP; HEK293T transfected with NPM1 wild-type or S260A plasmids for 24 h, with or without cisplatin (1 μM); Western blot
[4] = target: NPM1 S260A mutant (phosphodeficient) (UniProt P06748); test: as above
GST-PKMYT1 [5] = target: T1, GST-PKMYT1; test: pull-down; GST-PKMYT1 or GST-NPM1 on glutathione-sepharose beads incubated overnight at 4 °C with in vitro transcribed and translated NPM1 or PKMYT1; six washes with binding buffer; Western blot and Coomassie blue; only the target purified
GST-NPM1 [6] = target: GST-NPM1 (UniProt P06748); test: pull-down; GST-NPM1 or GST-PKMYT1 on glutathione-sepharose beads incubated with cell lysates (RIPA buffer) at 4 °C for 24 h; Western blot; only the target purified
[7] = target: nucleophosmin 1 (NPM1) (human (endogenous in HEK293T and the paper's other human cell lines)) (UniProt P06748); test: co-IP; endogenous proteins; whole-cell lysates with anti-NPM1 and anti-PKMYT1 antibodies and Protein A/G agarose beads, overnight at 4 °C; lysis buffer 50 mM Tris-HCl pH 7.4, 150 mM NaCl, 50 mM NaF, 1 mM EDTA; Western blot
GST-NPM1 [8] = target: GST-NPM1 (UniProt P06748); test: pull-down; GST-PKMYT1 or GST-NPM1 on glutathione-sepharose beads incubated overnight at 4 °C with in vitro transcribed and translated NPM1 or PKMYT1; six washes with binding buffer; Western blot and Coomassie blue; only the target purified

Molecule: nucleophosmin 1 (NPM1) (from UniProt P06748 1-294)
- binding (GST-PKMYT1 [1]): binds

Molecule: RADiation sensitive protein 51 (RAD51) (from UniProt Q06609 1-339)
- binding [2]: binds
- binding [3]: binds
- binding [4]: binds

B3: in vitro transcribed and translated PKMYT1 (enzyme, UniProt Q99640 1-499)
chain: T1 sequence
- binding (GST-NPM1 [8]): binds

Further lines, results first:

- binding (GST-PKMYT1 [5]): binds
Molecule: in vitro transcribed and translated NPM1 (from UniProt P06748 1-294)

- binding [2]: binds
- binding [3]: binds
- binding [4]: binds
B1: receptor-associated protein 80 (RAP80) (protein, UniProt Q96RL1 1-719)
chain: MPRRKKKVKEVSESRNLEKKDVETTSSVSVKRKRRLEDAFIVISDSDGEEPKEENGLQKTKTKQSNRAKCLAKRKIAQMTEEEQFALALKMSEQEAREVNSQEEEEEELLRKAIAESLNSCRPSDASATRSRPLATGPSSQSHQEKTTDSGLTEGIWQLVPPSLFKGSHISQGNEAEEREEPWDHTEKTEEEPVSGSSGSWDQSSQPVFENVNVKSFDRCTGHSAEHTQCGKPQESTGRGSAFLKAVQGSGDTSRHCLPTLADAKGLQDTGGTVNYFWGIPFCPDGVDPNQYTKVILCQLEVYQKSLKMAQRQLLNKKGFGEPVLPRPPSLIQNECGQGEQASEKNECISEDMGDEDKEERQESRASDWHSKTKDFQESSIKSLKEKLLLEEEPTTSHGQSSQGIVEETSEEGNSVPASQSVAALTSKRSLVLMPESSAEEITVCPETQLSSSETFDLEREVSPGSRDILDGVRIIMADKEVGNKEDAEKEVAISTFSSSNQVSCPLCDQCFPPTKIERHAMYCNGLMEEDTVLTRRQKEAKTKSDSGTAAQTSLDIDKNEKCYLCKSLVPFREYQCHVDSCLQLAKADQGDGPEGSGRACSTVEGKWQQRLKNPKEKGHSEGRLLSFLEQSEHKTSDADIKSSETGAFRVPSPGMEEAGCSREMQSSFTRRDLNESPVKSFVSISEATDCLVDFKKQVTVQPGSRTRTKAGRGRRRKF

- binding (GST-NPM1 [6]): binds
- binding [7]: binds
B2: protein kinase membrane-associated tyrosine/threonine 1 (PKMYT1) (enzyme, UniProt Q99640 1-499)
chain: T1 sequence
